Source: PubChem BioAssay AID2551 (National Center for Advancing Translational Sciences (NCATS), 2010)
Hit rate of the full screen: of about 310,000 compounds, about 17,000 (5.5%) were called active. The shares of active, inactive and inconclusive entries below differ from those in the screen. Calls come from the whole dose curve; as a rule, active = well fitted inhibition curve with a large enough effect; inconclusive = small, poorly fitted or top-dose-only effect, or effect the other way; inactive = no such curve, though single readings can be large or run the other way. A potency beside an inconclusive call is a rough fit, not a confirmed value. Where a SMILES comes first, the peptide text is derived from it. [ ]: non-standard residue; d: D form. Nle = CCCC[C@H](N)C(=O)O

The chains behind the UniProt entries cited, without tags or fusion partners. Where a name states a change or a piece, a line headed by the entry shows the natural chain unless it says otherwise.
UniProt P51450: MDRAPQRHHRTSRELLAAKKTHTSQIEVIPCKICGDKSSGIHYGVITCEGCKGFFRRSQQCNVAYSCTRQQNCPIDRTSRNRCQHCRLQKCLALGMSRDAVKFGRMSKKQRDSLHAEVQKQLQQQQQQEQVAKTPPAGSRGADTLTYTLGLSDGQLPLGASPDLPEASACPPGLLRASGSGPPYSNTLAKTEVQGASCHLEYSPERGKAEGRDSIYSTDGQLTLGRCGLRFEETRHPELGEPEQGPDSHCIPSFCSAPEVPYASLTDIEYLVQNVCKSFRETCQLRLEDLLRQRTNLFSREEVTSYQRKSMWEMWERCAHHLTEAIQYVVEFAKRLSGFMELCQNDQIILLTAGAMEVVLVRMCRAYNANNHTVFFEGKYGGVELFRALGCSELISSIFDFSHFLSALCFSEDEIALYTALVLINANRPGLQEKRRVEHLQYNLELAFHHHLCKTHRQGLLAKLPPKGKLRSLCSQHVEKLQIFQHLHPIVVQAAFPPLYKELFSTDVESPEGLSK

target: Nuclear receptor ROR-gamma (Mus musculus) (UniProt P51450); assay: qHTS for inhibitors of ROR gamma transcriptional activity; conditions: Drosophila S2 Gal4-RORgamma UAS-luciferase reporter, 20 h; activity change, negative = inhibition: at 53.6 µM (top of the series); note: nearly all actives have a fitted effect of over 60% in size
Summary of the method: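 Read-out: Photinus luciferase luminescence; inhibitors lower reporter signal. Insect Schneider cells with Gal4-ROR gamma fusion under metallothionein promoter, UAS reporter; 700 uM final copper sulfate induction, 20 hr, ambient temperature.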
% is set by controls: 0 for no effect and ±100 for the full control effect; potency is the fitted concentration of half-maximal effect.

| Structure (SMILES) | Potency | activity change, negative = inhibition |
| --- | --- | --- |
| Cc1ccc(/C=C/C(=O)NC(=S)N2CCN(c3ccc(F)cc3)CC2)cc1 | inconclusive: 1.26 µM [inhibitor, full curve] | – |
| COc1ccc2oc(=O)c(/C(N)=N/NC(=O)c3ccncc3)cc2c1 | inconclusive: 11.2 µM [inhibitor, partial curve] | – |
| CCOC(=O)N1CCN(C(=O)CS(=O)(=O)c2cn(Cc3ccc(F)cc3)c3ccccc23)CC1 | – | inactive: 7.03% |
| CN(C(=S)SCc1ccccc1)C1CCS(=O)(=O)C1 (centres undefined) | inconclusive: 35.5 µM [activator, single point] | – |
| Cc1ccc(S(=O)(=O)N2CCOCC2)cc1C(=O)c1nccn1C | – | inactive: 2.32% |
| Cc1ccc2[nH]c(O)c(N=Nc3nc4ccccc4s3)c2c1 | active: 2.82 µM | – |
| CCCN(CCC)c1nc(Cl)nc(NCc2ccco2)n1 | inconclusive: 35.5 µM [activator, single point] | – |
| COC(=O)c1ccc(C(NC(=O)OCc2ccccc2)/C(I)=C/[C@@H](C)C(=O)NCC2CC2)cc1 (some centres undefined) | inconclusive: 7.94 µM [activator, partial curve] | – |
| O=C(Cn1c(=O)[nH]c2ccccc2c1=O)Nc1ccc2c(c1)OCCO2 | – | inactive: -19.4% |
| Cn1ccnc1C1CCCCN1Cc1nc(Cc2cccc(C(F)(F)F)c2)no1 (centres undefined) | active: 7.08 µM | – |
| N#C/C(=N\Nc1ccc(S(=O)(=O)N2CCCCC2)cc1)C(N)=S | inconclusive: 17.8 µM [inhibitor, single point] | – |
| Cc1ccc(-n2nc3c(N4CCC(C(=O)NCc5ccccc5C)CC4)nnc(C)c3c2C)cc1 | active: 12.6 µM | – |
| CC1CCC/C=C/C(=O)c2c(O)cc(O)cc2CC(=O)O1 (centres undefined) | inconclusive: 3.55 µM [inhibitor, single point] | – |
| COc1ccc(OC)c(Nc2nc(=O)c3cccnc3s2)c1 | active: 4.47 µM | – |
| CN(c1ccccc1C(=O)Nc1ccc(S(=O)(=O)N2CCOCC2)cc1)S(=O)(=O)c1ccccc1 | inconclusive: 17.8 µM [activator, single point] | – |
| COc1ccc(/C=C(/CC(=O)Nc2ccccc2)c2nc3ccccc3s2)cc1 | inconclusive: 6.31 µM [activator, partial curve] | – |
| C/C(=N\NC(=O)c1cccc(N/N=C(\C)c2ccco2)c1)c1ccco1 | – | inactive: 2.31% |
| CCn1c2ccccc2c2nn(C)c(=N)nc21 | – | inactive: -8.66% |
| CCCC(=O)c1ccc(N2CCN(C(=O)c3ccccc3Br)CC2)c(F)c1 | inconclusive: 10 µM [inhibitor, single point] | – |
| N=c1sccn1CC(=O)Nc1cc(Cl)ccc1Oc1ccccc1 | inconclusive: 2.82 µM [inhibitor, single point] | – |
| CCCCCCCCCCCCCCC(F)C(=O)O (centres undefined) | – | inactive: 10.4% |
| NC(=S)C1COc2ccccc2O1 (centres undefined) | active: 12.6 µM | – |
| COc1ccc(N(C(=O)c2ccncc2)S(=O)(=O)c2ccccc2)cc1 | – | inactive: -20.7% |
| CCOc1ccc(-c2c(C(=O)N/N=C/c3ccc(C)s3)nnn2-c2nonc2N)cc1 | active: 2.24 µM | – |
| Cc1cc(C(F)(F)F)nc(SCCN2CCOCC2)c1C#N | inconclusive: 35.5 µM [inhibitor, single point] | – |

| Structure (SMILES) | Potency | activity change, negative = inhibition |
| --- | --- | --- |
| CN(C)c1ccc(NC(=O)CSc2nc3ccccc3c(=O)n2CC2CCCO2)cc1 (centres undefined) | inconclusive: 3.55 µM [activator, single point] | – |
| CCCCOc1cccc(C2/C(=C(/O)c3ccc4c(c3)CC(C)O4)C(=O)C(=O)N2CCN2CCOCC2)c1 (centres undefined) | inconclusive: 14.1 µM [activator, single point] | – |
| O=C(COC(=O)c1cc(S(=O)(=O)N2CCCCC2)ccc1N1CCOCC1)NC1CCCCC1 | inconclusive: 14.1 µM [inhibitor, single point] | – |
| O=C(N/N=C/C=C/c1ccco1)/C(=C/c1ccccc1)NC(=O)c1ccccc1 | active: 12.6 µM | – |
| Cc1ccc(C(=O)Nc2cc3ccccc3oc2=O)cc1 | active: 1.58 µM | – |
| S=c1[nH]nc(-c2cccnc2)n1/N=C/C=C/c1ccccc1 | active: 4.47 µM | – |
| Cc1nc2ccccc2n1CC(O)COc1ccc(Br)cc1 (centres undefined) | inconclusive: 35.5 µM [inhibitor, single point] | – |
| COc1cccc(CNC(=O)CCC2CCCN(C(=O)c3cccc(Cl)c3)C2)c1 (centres undefined) | inconclusive: 12.6 µM [activator, single point] | – |
| CC(C)(C)c1ccc(C(=O)N2CCN(C(=O)C3CCCCC3)CC2)cc1 | inconclusive: 14.1 µM [activator, single point] | – |
| Cc1cccc(/C(N)=N/OC(=O)c2ccc(F)cc2)c1 | active: 8.91 µM | – |
| COc1ccc(-c2cc(C3C4C=CCC(C)C4C(=O)N3Cc3ccccc3)ccc2F)cc1OC (centres undefined) | inconclusive: 8.91 µM [activator, partial curve, poor fit] | – |
| COc1ccc(C(CCN(Cc2ccc(OC)c(OC)c2)C(=O)CCl)c2ccccc2)cc1 (centres undefined) | inconclusive: 22.4 µM [inhibitor, single point] | – |
| Cc1c(Cc2ccc3c(c2)OCO3)sc(NC(=O)c2ccc3ccccc3c2)c1C(N)=O | – | inactive: 0.892% |
| COc1ccc(N2CCN(C(=O)C3COc4ccccc4O3)CC2)cc1 (centres undefined) | inconclusive: 35.5 µM [inhibitor, single point] | – |
| Cc1ccc(S(=O)(=O)NNC(=O)c2cccs2)c(C)c1 | – | inactive: -1.08% |
| O=C(O)c1ccccc1C(=O)c1ccc2c(c1)N(Cc1ccc(Cl)c(Cl)c1)C(=O)CO2 | inconclusive: 14.1 µM [activator, single point] | – |
| COc1cc(OC)c2c(=O)c(-c3ccc4c(c3)OCO4)coc2c1 | inconclusive: 11.2 µM [activator, single point] | – |
| Cc1ccc2nc(NC(=O)C3CCN(S(=O)(=O)c4cccc5nsnc45)CC3)sc2c1 | inconclusive: 35.5 µM [activator, single point] | – |
| NC(=S)N/N=C/c1cc([N+](=O)[O-])ccc1Cl | active: 25.1 µM | – |
| Cc1ccc(NC(=S)NCCc2c[nH]c3ccccc23)cc1 | active: 7.94 µM | – |
| Cc1cccc(N2CCN(C(=O)CCS(=O)(=O)c3ccc4c(c3)NC(=O)C(C)S4)CC2)c1C (centres undefined) | inconclusive: 35.5 µM [activator, single point] | – |
| COc1ccc(/C=N/NC(=O)c2ccc3nc[nH]c3c2)c(OC)c1OC | inconclusive: 31.6 µM [inhibitor, single point] | – |
| Cc1nn2c(-c3ccc(S(=O)(=O)N4CCN(CCO)CC4)o3)nnc2c2ccccc12 | – | inactive: -19.8% |
| Cc1cccn2c(=O)c3cc(C(=O)NCc4cccnc4)c(=N)n(C(C)C)c3nc12 | – | inactive: -18.1% |
| CCCc1nc2ccc(NC(=O)c3ccco3)cc2c(=O)n1Cc1ccccc1Cl | inconclusive: 12.6 µM [activator, partial curve] | – |

Looked up by compound from above:

| Structure (SMILES) | Potency | activity change, negative = inhibition |
| --- | --- | --- |
| CC(C)(C)c1ccc(C(=O)N2CCN(C(=O)C3CCCCC3)CC2)cc1 | inconclusive: 14.1 µM [activator, single point] | – |
| O=C(N/N=C/C=C/c1ccco1)/C(=C/c1ccccc1)NC(=O)c1ccccc1 | active: 12.6 µM | – |
| COc1ccc(C(CCN(Cc2ccc(OC)c(OC)c2)C(=O)CCl)c2ccccc2)cc1 (centres undefined) | inconclusive: 22.4 µM [inhibitor, single point] | – |
| COc1ccc(-c2cc(C3C4C=CCC(C)C4C(=O)N3Cc3ccccc3)ccc2F)cc1OC (centres undefined) | inconclusive: 8.91 µM [activator, partial curve, poor fit] | – |

Next compounds

| Structure (SMILES) | Potency | activity change, negative = inhibition |
| --- | --- | --- |
| FC(F)(F)c1nnc(-c2ccccc2)nc1Sc1ccccc1 | inconclusive: 22.4 µM [inhibitor, single point] | – |
| COc1cccc(Nc2ccc(Nc3cccc(OC)c3)nn2)c1 | active: 11.2 µM | – |
| NS(=O)(=O)c1ccc(NC(=O)COC(=O)c2ccc([N+](=O)[O-])s2)cc1 | – | inactive: 5.1% |
| CCCC[C@]12Cc3cc(OC)c(OC)cc3C(O1)C1=C(O2)C(=O)c2ccccc2C1=O | – | inactive: -19.4% [at 10 µM] |
| Cc1ccc(NC(=O)CN2C(=O)N/C(=C\c3cccn3-c3cccc(C(=O)O)c3)C2=O)cc1 | – | inactive: 13.8% |
| COCCN(C(=S)Nc1c(C)cccc1C)C(C)c1cccs1 (centres undefined) | inconclusive: 15.8 µM [inhibitor, single point] | – |
| CCN(CC)c1ccc(NC(=O)OC)cc1 | – | inactive: 36.2% |
| O=C(N/N=C/c1ccsc1)c1cc(-c2ccncc2)nc2ccccc12 | active: 11.2 µM | – |
| CC(=O)N1CCc2cc(S(=O)(=O)Nc3cccc(C(F)(F)F)c3)ccc21 | inconclusive: 28.2 µM [inhibitor, single point] | – |
| CC(C)n1c(NCc2nc3ccccc3n2C)nc2ccccc21 | inconclusive: 25.1 µM [inhibitor, single point] | – |
| Cc1ccc(S(=O)(=O)N2CCCCC2)cc1NC(=O)Cn1ccsc1=N | – | inactive: 30.8% |
| COCCCNC(=S)N/N=C/c1ccc(O)cc1 | active: 12.6 µM | – |
| COc1cccc(-n2c(-c3ccccc3)c[nH]c2=S)c1 | active: 11.2 µM | – |
| Nn1c(SCC(=O)NCc2ccccc2)nnc1C1CC1 | – | inactive: -9.68% |
| O=C(Nc1ccccc1)Nc1cccc(Cl)c1 | inconclusive: 4.47 µM [activator, full curve] | – |
| CN(NS(=O)(=O)c1ccc(Br)cc1)c1nc(C(F)(F)F)nc2ccccc12 | inconclusive: 14.1 µM [inhibitor, single point] | – |
| O=[N+]([O-])c1ccc(OCc2nnc(-c3ccccc3)o2)cc1 | – | inactive: 21.3% |
| COC(=O)c1ccc(CSc2nc(C)nc3c2c(=O)n(C)c(=O)n3C)o1 | inconclusive: 35.5 µM [inhibitor, single point] | – |
| CC1CCc2sc(NC(=S)NC(=O)c3ccccc3)c(C#N)c2C1 (centres undefined) | active: 14.1 µM | – |
| CNC(=S)NNC(=O)c1cccc(C(F)(F)F)c1 | active: 11.2 µM | – |
| Cc1cccc(S(=O)(=O)Nc2ccc(-c3cn4ccccc4n3)cc2)c1 | inconclusive: 3.55 µM [activator, full curve] | – |
| C/C(=N/NC(=O)c1cc(Cl)ccc1O)C12CC3CC(CC(C3)C1)C2 | inconclusive: 11.2 µM [inhibitor, single point] | – |
| CCOc1ccccc1N(C(=O)c1snc(C(N)=O)c1N)C(C(=O)NCC1CCCO1)c1ccc2ncccc2c1 (centres undefined) | inconclusive: 0.355 µM [activator, partial curve] | – |
| CCCC[C@@H](C=O)NC(=O)[C@H](CC(C)C)NC(=O)[C@H](CC(C)C)NC(C)=O (Ac-Leu-Leu-[Nle]-aldehyde) | inconclusive: 2.24 µM [inhibitor, full curve, poor fit] | – |
